Source: US20240374879A1, “METHODS AND COMPOSITIONS TO REDUCE CELLULAR DEPOSITION, AND HYDROCEPHALUS SHUNT FAILURE” (Wayne State University, priority 2021, published 2024)

Test: GIT 27 Release Experiment (shunt coating, nanodrop absorbance)
Type: physicochemical
Experimental: GIT 27 Release Experiment: GIT 27 attachment to the surface of a shunt was completed using techniques similar to those described in previous work (Harris et al., J Biomed Mater Res-Part A. 98 A:425-33, 2011). Briefly, ventricular shunts (Medtronic 27600) were cut into 1.5 cm segments and placed in the plasma etcher. Immediately after finishing the etching cycle, the samples were submerged in a solution made up of 2.5 mg/mL N-hydroxysuccinimide (NHS), 2.5 mg/mL 1-Ethyl-3-(3-dimethylaminopropyl) carbodiimide (EDC), and GIT 27 at either a 5, 50, and 1000 μg/mL concentration. Samples were left to incubate for 24 hours and then washed with 0.9% (w/v) saline solution. […]
At days 7, 14, 21, and 28, absorbance values were measured using the same methods as described in previous work (Al-Saloum et al., J Biomed Mater Res-Part B Appl Biomater. 109:1177-1187, 2021). Briefly, 2 μL of solution were placed on the nanodrop machine and measured using the a280 nanodrop setting on the Nano-Drop 2000 program. Absorbance values were recorded and compared to a standard curve made up of 7 concentrations evenly distributed between 0 and 1000 mg/mL of the GIT 27 in saline solution. The equation obtained from the standardized curve was y=18.7x+0.131, where y is the concentration of GIT 27 in the saline solution and x is the absorbance value.

O=C(O)CC1CC(c2ccccc2)=NO1 (centres unmarked) [GIT 27, 4,5-Dihydro-3-phenyl-5-isoxazoleacetic acid]
release of GIT 27 physiosorbed to the catheter surface (coating solution 1000 μg/mL, four-week incubation in saline, 37° C.): partially released
minimum concentration necessary to attach GIT 27 to the surface of the PDMS to display any attachment and release from the catheter (plasma etching, NHS/EDC solution): 1000 µg/mL
